{"sequences": {"note": "Protein sequences, listed by entry. Tags and fused reporters are not part of them.", "UniProt Q93009": "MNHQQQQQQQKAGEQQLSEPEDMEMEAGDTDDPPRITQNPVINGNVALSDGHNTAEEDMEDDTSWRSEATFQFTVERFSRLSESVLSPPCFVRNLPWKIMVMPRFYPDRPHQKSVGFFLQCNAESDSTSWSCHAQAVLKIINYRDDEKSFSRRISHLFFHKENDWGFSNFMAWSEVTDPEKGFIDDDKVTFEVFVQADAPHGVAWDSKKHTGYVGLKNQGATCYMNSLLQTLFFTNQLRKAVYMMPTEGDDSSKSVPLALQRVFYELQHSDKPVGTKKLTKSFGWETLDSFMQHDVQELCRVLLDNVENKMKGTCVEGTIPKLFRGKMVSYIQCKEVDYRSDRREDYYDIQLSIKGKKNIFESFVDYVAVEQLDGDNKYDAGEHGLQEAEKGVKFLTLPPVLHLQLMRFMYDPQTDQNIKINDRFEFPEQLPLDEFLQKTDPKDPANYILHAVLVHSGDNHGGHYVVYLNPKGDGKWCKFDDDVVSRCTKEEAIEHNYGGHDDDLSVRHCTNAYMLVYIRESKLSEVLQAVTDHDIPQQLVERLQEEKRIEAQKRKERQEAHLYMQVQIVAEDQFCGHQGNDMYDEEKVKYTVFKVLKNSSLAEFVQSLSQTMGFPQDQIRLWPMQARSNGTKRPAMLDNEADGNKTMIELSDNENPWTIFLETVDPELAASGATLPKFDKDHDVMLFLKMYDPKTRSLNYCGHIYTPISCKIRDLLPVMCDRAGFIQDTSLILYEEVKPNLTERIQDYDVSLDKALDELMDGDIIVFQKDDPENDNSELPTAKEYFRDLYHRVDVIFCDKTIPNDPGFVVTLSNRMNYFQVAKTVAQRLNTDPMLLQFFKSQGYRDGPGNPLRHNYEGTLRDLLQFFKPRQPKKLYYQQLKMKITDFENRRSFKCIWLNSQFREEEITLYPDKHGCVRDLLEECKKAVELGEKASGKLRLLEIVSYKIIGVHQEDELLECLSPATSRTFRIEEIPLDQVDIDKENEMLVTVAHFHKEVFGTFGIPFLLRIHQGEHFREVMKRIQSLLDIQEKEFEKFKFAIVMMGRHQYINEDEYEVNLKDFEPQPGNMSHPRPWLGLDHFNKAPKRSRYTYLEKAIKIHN", "UniProt Q7Z6Z7": "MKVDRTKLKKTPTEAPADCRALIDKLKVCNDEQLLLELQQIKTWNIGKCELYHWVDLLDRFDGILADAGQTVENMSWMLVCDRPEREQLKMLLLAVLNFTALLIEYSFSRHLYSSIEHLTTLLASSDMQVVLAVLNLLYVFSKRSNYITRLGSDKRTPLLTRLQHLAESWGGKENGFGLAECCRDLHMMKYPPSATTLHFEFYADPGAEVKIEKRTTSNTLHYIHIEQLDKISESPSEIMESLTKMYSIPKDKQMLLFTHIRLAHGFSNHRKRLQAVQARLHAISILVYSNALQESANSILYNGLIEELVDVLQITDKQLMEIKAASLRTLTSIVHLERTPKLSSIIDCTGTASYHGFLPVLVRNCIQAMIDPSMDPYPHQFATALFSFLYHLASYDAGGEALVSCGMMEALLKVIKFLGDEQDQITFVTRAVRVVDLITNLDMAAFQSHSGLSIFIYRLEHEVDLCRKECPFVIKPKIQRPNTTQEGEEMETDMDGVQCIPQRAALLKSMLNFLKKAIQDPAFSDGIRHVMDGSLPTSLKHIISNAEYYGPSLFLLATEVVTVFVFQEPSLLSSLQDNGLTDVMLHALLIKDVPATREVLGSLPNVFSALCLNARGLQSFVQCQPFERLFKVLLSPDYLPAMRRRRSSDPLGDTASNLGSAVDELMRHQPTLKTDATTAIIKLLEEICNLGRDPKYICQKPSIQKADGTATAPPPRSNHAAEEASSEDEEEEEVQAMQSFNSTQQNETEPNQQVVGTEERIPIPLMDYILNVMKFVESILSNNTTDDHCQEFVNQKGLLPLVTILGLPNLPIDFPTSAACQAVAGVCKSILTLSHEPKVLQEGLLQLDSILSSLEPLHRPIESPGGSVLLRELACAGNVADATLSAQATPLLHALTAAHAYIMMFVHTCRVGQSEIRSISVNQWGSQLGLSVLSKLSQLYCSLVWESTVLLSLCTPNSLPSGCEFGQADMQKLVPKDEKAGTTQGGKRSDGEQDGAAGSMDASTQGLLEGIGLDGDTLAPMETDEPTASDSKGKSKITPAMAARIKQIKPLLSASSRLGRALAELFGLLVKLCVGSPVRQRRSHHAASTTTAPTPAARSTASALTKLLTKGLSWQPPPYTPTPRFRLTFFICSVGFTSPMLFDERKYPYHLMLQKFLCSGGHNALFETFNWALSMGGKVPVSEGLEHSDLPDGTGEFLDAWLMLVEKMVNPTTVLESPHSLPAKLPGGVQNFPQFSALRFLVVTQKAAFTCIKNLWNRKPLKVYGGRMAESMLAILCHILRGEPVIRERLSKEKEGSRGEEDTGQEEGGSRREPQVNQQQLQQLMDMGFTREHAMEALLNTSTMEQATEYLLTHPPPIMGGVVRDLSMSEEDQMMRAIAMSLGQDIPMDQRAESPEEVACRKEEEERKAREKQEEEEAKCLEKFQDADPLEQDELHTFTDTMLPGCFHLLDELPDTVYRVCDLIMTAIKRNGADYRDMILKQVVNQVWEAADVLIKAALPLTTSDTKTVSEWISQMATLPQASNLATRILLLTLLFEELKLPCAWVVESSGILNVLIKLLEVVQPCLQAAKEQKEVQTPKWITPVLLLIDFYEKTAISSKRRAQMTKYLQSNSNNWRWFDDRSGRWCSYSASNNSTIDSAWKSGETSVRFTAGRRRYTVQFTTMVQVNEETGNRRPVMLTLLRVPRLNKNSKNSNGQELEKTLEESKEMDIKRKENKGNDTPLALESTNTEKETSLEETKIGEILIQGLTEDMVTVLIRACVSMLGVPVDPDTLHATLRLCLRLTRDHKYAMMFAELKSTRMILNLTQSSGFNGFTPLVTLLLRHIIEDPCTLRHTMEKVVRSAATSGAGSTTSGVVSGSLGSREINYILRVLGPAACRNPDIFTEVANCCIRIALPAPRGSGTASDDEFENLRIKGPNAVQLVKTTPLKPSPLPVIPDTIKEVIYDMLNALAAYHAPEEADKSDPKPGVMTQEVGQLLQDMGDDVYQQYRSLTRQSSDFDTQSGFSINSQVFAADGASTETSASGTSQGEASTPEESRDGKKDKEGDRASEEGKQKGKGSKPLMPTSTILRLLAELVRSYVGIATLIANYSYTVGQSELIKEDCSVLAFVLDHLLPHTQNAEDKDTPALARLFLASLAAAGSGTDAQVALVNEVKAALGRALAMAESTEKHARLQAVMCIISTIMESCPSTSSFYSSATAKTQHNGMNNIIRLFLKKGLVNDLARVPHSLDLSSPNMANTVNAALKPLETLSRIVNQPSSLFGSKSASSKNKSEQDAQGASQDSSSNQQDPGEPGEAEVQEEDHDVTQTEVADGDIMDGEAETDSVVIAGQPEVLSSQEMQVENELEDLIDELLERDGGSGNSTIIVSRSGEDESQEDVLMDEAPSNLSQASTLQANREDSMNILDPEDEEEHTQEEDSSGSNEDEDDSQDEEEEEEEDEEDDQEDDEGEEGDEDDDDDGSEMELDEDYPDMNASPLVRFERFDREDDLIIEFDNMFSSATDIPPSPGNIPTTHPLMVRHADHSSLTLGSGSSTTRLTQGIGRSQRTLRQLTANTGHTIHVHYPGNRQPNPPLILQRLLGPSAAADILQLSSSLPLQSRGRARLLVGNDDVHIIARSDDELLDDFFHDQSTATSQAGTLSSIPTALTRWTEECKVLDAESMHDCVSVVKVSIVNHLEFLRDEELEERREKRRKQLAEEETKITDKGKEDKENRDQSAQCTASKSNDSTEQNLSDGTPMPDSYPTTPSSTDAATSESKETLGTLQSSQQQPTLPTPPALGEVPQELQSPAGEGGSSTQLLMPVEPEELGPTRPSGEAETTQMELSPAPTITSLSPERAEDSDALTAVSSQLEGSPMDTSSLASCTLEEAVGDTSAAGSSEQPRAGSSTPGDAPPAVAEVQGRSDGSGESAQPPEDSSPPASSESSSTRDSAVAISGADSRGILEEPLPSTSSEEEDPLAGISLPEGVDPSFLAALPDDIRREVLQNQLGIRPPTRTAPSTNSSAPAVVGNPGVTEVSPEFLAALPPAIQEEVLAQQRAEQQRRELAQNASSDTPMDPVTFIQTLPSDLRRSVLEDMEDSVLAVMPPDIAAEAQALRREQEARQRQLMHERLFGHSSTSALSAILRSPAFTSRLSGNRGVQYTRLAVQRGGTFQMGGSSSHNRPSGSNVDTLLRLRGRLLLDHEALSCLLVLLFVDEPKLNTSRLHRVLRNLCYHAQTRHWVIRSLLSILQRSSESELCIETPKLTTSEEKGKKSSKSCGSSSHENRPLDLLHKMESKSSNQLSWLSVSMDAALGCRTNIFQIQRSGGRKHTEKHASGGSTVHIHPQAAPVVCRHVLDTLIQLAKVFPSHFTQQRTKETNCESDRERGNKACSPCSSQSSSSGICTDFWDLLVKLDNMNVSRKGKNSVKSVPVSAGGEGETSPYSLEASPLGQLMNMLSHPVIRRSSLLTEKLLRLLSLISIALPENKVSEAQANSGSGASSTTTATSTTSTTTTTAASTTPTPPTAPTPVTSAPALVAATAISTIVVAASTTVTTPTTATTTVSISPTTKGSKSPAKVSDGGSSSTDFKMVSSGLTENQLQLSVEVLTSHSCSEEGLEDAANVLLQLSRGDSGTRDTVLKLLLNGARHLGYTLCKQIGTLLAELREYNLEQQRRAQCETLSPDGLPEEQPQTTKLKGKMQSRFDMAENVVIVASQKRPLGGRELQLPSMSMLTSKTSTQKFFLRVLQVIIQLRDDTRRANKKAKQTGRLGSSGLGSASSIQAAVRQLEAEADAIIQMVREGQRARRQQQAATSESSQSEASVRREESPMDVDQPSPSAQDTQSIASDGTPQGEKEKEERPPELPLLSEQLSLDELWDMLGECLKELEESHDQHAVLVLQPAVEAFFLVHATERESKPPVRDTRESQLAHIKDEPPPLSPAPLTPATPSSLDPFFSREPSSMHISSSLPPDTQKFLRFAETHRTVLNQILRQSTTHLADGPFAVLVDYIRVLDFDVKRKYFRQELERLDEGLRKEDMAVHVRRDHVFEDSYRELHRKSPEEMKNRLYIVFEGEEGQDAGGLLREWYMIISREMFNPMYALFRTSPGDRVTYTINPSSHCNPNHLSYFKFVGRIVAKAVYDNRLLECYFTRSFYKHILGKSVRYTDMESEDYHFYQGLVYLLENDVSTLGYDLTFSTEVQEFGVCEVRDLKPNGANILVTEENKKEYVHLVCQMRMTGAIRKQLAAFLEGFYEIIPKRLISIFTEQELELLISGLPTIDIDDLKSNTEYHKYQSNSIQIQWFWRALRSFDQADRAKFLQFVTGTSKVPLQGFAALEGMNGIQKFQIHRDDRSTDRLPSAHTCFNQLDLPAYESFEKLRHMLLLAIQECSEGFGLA"}, "source": "paper PMC9638029", "target": "EYFP-USP7 (UniProt Q93009)", "test": "co-IP; HepG2 cells transfected with plasmids for 24 h, then treated with ATO and/or PTL for 24 h; lysed in IP lysis buffer; IP of EYFP-USP7 with GFP-agarose; Western blot with the indicated antibodies", "note": "These are yes or no findings as the source states them, for the method shown. In cells and extracts the contact can be indirect. Some results given as binding are weak or reduced against the parent protein; the word gives no strength.", "data": [{"substance": "HUWE1 (from UniProt Q7Z6Z7 1-4374) (enzyme)", "values": [{"measurement": "binding", "value": "binds"}]}]}
